The name of at least one read-out is uncertain.
Test system: chloroform-induced ventricular fibrillation
Assay: protection against chloroform-induced ventricular fibrillation in mice
Format: in vivo, mouse (female Swiss albino, Ham/ICR)
Conditions: 100 mg/kg s.c., 10 mice, chloroform after 20 min
Protocol: Ventricular fibrillation was produced in female Swiss albino mice (Ham/ICR weighing 18-25g.) essentially according to the method described by Lawson in J. Pharm, Exp. Therap. 160, 22 (1968).
The mice were placed individually into a 2,000 ml. beaker with cotton and 50 ml. of chloroform. Immediately after cessation of respiration the mouse was removed from the beaker, the thorax opened and the heart examined for the presence or absence of ventricular fibrillation. Each heart was stimulated by touching with forceps, and the nature of the cardiac rhythm was noted and confirmed by electrocardiographic recordings. The heart was considered to be fibrillating if fine tremulous movements were present on the surface of the ventricle and persisted for at least five seconds after the mechanical stimulus. Ventricular fibrillation was considered absent in those animals in which coordinated ventricular activity was evident following such procedures.
For initial evaluation of antiarrhythmic activity and toxicity of test compounds, a dose of 100 mg/kg (calculated for the base form, 1% solution in 0.9% saline, adjusted to pH 6-7) was administered subcutaneously to a group of 10 non-fasted, randomly selected mice. […]
The data obtained from the three point assay was computer-analyzed using Berkson's minimum logit chi square analysis. […]

SMILES | Number Protected
CCN(CC)CC(=O)Nc1c(C)cccc1C [Lidocaine, 2-diethylamino-2',6'-acetoxylidide, reference compound] | 10
COc1ccc(Cc2nccc3cc(OC)c(OC)cc23)cc1OC [Papaverine, reference compound] | 2

Source: patent US4053603A, “Benzylisoquinoline derivatives, and use as anti-arrhythmic drugs” (Astra Pharmaceutical Products, Inc., priority 1976, dated 1977)
